Patent US20240382506A1, “Means and Methods to Regulate Gut Dysbiosis” (VIB VZW, priority 2021, published 2024)
For at least one compound, name, drawing or mass did not settle the structure.

Tested on: Salmonella
Test: Salmonella growth in CT26 cell supernatants
Assay type: cell-based, Salmonella enterica serovar Typhimurium
Conditions: exogenous pyruvate supplementation; 9 hours anaerobic growth
Description: All mammalian cells were cultured at 5×10^5 cells per ml. Cells were washed with 1× PBS before induction of cell death in the indicated medium. Jurkat cells were cultured in suspension at 5×10^5 cells/ml. After induction of cell death, supernatant was collected and spun at 330 rcf for 5 minutes to remove cellular debris. Unless stated otherwise, the resulting supernatant was filtered using a 0.2 μm syringe filter and either used immediately or frozen at −20° C. for later use. Cells were stained with Annexin V (AV) conjugated to APC or Pac Blue and either Sytox blue, Yoyo-1, or 7AAD (DNA binding dyes) for 15 minutes at room temperature in Annexin V binding buffer (BD). Flow cytometry was performed using the Attune NxT (Invitrogen), the FACS Calibur (BD), the LSR Fortessa (BD), or the LSRII (BD). Data were analyzed using FlowJo v.10 software. All independent experiment values shown are the average values of technical duplicates. ‘% Annexin V^+’ cells include Annexin V^+DNA dye^− and Annexin V^+DNA dye^+ cell populations. […]
OD600 measurements: 4 ml of supernatant or media controls were inoculated with 1-2×10^7 CFU/ml of the indicated bacterial species. Cultures were grown at 37° C. with 200 rpm agitation (aerobic) and bacterial growth was quantified by OD600 measurements using the Ultrospec 10 (VWR) at the indicated time points. […]

CC(=O)C(=O)O [pyruvate]
Salmonella growth in apoptotic supernatants from Shikonin-treated cells after add-back: rescued
